Chains of the proteins cited; added tags and fusions are not shown.
UniProt Q38931: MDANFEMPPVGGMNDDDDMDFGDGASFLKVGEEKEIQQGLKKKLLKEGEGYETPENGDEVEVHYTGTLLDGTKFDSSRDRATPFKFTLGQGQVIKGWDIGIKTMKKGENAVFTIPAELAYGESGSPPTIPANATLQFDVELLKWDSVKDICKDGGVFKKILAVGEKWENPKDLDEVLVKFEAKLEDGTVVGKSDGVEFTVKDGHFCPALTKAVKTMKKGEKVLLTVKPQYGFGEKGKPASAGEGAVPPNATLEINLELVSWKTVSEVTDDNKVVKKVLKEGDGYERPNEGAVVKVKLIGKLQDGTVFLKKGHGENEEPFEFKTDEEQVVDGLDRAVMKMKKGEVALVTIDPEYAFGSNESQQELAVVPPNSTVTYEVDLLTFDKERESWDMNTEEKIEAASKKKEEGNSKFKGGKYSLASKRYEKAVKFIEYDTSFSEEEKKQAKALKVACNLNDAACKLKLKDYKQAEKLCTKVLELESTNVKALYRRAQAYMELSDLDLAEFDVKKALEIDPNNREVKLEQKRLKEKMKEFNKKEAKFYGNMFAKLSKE

According to PMC8496721:

T1: NBR1-GFP (Arabidopsis thaliana) (UniProt Q9SB64)
T1 sequence: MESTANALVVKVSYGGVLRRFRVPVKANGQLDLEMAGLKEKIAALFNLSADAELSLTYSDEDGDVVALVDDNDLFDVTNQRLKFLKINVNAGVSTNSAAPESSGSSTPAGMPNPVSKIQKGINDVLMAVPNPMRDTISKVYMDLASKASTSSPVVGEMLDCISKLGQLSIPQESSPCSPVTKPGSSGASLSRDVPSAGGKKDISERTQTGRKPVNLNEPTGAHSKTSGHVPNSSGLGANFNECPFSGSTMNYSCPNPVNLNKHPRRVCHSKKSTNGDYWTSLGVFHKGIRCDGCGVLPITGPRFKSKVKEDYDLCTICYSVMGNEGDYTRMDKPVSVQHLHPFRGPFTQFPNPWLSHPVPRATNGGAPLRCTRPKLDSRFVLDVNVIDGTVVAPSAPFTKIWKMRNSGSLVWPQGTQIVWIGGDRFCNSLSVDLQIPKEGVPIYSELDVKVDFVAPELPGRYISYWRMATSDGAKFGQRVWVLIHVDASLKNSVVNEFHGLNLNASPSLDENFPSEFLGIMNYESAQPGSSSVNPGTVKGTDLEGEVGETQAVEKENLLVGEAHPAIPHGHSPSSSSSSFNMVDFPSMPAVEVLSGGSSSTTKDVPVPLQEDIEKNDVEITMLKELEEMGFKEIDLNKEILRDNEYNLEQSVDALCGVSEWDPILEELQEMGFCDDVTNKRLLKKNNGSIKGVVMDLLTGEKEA

B1: GLN1-1 (ARABIDOPSIS GLUTAMINE SYNTHASE 1) (protein, UniProt Q56WN1 1-356)
chain: MSLVSDLINLNLSDSTDKIIAEYIWVGGSGMDMRSKARTLPGPVTDPSQLPKWNYDGSSTGQAPGEDSEVILYPQAIFKDPFRRGNNILVMCDAYTPAGEPIPTNKRHAAAKVFSNPDVAAEVPWYGIEQEYTLLQKDVKWPVGWPIGGYPGPQGPYYCGIGADKSFGRDVVDSHYKACLYAGINISGINGEVMPGQWEFQVGPAVGISAADEIWVARYILERITEIAGVVVSFDPKPIPGDWNGAGAHCNYSTKSMREEGGYEIIKKAIDKLGLRHKEHIAAYGEGNERRLTGHHETADINTFLWGVANRGASIRVGRDTEKEGKGYFEDRRPASNMDPYIVTSMIAETTILWNP
B2: RPT1A (REGULATORY PARTICLE TRIPLE-A 1A) (protein, UniProt Q9SSB5 1-426)
chain: MVRDIEDEIRDEKNPRPLDEDDIALLKTYGLGPYSAPIKKVEKEIKDLAKKINDLCGIKESDTGLAPPSQWDLVSDKQMMQEEQPLQVARCTKIISPNTEDAKYVINVKQIAKFVVGLGDKVSPTDIEEGMRVGVDRNKYQIQIPLPPKIDPSVTMMTVEEKPDVTYNDVGGCKEQIEKMREVVELPMLHPEKFVKLGIDPPKGVLCYGPPGTGKTLLARAVANRTDACFIRVIGSELVQKYVGEGARMVRELFQMARSKKACIVFFDEVDAIGGARFDDGVGGDNEVQRTMLEIVNQLDGFDARGNIKVLMATNRPDTLDPALLRPGRLDRKVEFGLPDLESRTQIFKIHTRTMNCERDIRFELLARLCPNSTGADIRSVCTEAGMYAIRARRKTVTEKDFLDAVNKVIKGYQKFSATPKYMVYN
B3: RSR4 (ARABIDOPSIS THALIANA PYRIDOXINE BIO… 1.3) (protein, UniProt Q8L940 1-309)
chain: MEGTGVVAVYGNGAITEAKKSPFSVKVGLAQMLRGGVIMDVVNAEQARIAEEAGACAVMALERVPADIRAQGGVARMSDPQMIKEIKQAVTIPVMAKARIGHFVEAQILEAIGIDYIDESEVLTLADEDHHINKHNFRIPFVCGCRNLGEALRRIREGAAMIRTKGEAGTGNIIEAVRHVRSVNGDIRVLRNMDDDEVFTFAKKLAAPYDLVMQTKQLGRLPVVQFAAGGVATPADAALMMQLGCDGVFVGSGIFKSGDPARRARAIVQAVTHYSDPEMLVEVSCGLGEAMVGINLNDEKVERFANRSE
B4: CA2 (BETA CARBONIC … 2) (protein, UniProt P42737 72-331)
chain: RMGNESYEDAIEALKKLLIEKDDLKDVAAAKVKKITAELQAASSSDSKSFDPVERIKEGFVTFKKEKYETNPALYGELAKGQSPKYMVFACSDSRVCPSHVLDFHPGDAFVVRNIANMVPPFDKVKYAGVGAAIEYAVLHLKVENIVVIGHSACGGIKGLMSFPLDGNNSTDFIEDWVKICLPAKSKVLAESESSAFEDQCGRCEREAVNVSLANLLTYPFVREGVVKGTLALKGGYYDFVNGSFELWELQFGISPVHSI
B5: UXS3 (UDP-GLUCURONIC ACID DECARBOXYLASE 3) (protein, UniProt Q9FIE8 1-342)
chain: MAATSEKQNTTKPPPSPSPLRNSKFCQPNMRILISGGAGFIGSHLVDKLMENEKNEVVVADNYFTGSKENLKKWIGHPRFELIRHDVTEPLLIEVDRIYHLACPASPIFYKYNPVKTIKTNVIGTLNMLGLAKRVGARILLTSTSEVYGDPLIHPQPESYWGNVNPIGVRSCYDEGKRVAETLMFDYHRQHGIEIRIARIFNTYGPRMNIDDGRVVSNFIAQALRGEALTVQKPGTQTRSFCYVSDMVDGLIRLMEGNDTGPINIGNPGEFTMVELAETVKELINPSIEIKMVENTPDDPRQRKPDISKAKEVLGWEPKVKLREGLPLMEEDFRLRLNVPRN

Each molecule was assayed against T1, NBR1-GFP (Arabidopsis thaliana) (assay: affinity purification with mass spectrometry; anti-GFP antibody microbeads on total extracts of primed, cross-linked pNBR1:NBR1-GFP and 35S:GFP (control) seedlings, day 1 of the HS recovery phase; 50 mM Tris-HCl pH 7.5, 150 mM NaCl, 1% Tween-20; overnight at 4°C; LC-MS/MS; named hits are those also more abundant in nbr1-2).

binding | Molecule
binds | SAM-2 (S-ADENOSYLMETHIONINE … 2) (from UniProt P17562 1-393)
binds | RPS10B (40S RIBOSOMAL PROTEIN) (from UniProt Q9FFS8 1-180)
binds | ROTAMASE 1 (ROF1), endogenous (from UniProt Q38931 1-551)
binds | RP40 (40S RIBOSOMAL PROTEIN)
binds | B1
binds | B2
binds | B3
binds | B4
binds | B5

Results are given in words; binding and its absence hold for the method and conditions named. Binding seen in cells or lysates may run through a third protein. Here binding means that the protein was enriched with, or labelled near, the bait; the list need not be complete. Tags and fused reporters may be left off the sequences shown.
